The target in this assay is SRCAP (SNF2-related CBP activator protein) (human (endogenous in HeLa)) (UniProt Q6ZRS2). Description: co-IP; endogenous SRCAP immunoprecipitated with a rabbit polyclonal anti-SRCAP antibody (Kerafast) from the cytosolic fraction (S2, 2 mg/ml) of telophase-synchronized HeLa cells (thymidine/nocodazole blocks); negative control: beads without antibody; partners detected by Western blotting.

Chains of the proteins cited; added tags and fusions are not shown.
UniProt Q6ZRS2: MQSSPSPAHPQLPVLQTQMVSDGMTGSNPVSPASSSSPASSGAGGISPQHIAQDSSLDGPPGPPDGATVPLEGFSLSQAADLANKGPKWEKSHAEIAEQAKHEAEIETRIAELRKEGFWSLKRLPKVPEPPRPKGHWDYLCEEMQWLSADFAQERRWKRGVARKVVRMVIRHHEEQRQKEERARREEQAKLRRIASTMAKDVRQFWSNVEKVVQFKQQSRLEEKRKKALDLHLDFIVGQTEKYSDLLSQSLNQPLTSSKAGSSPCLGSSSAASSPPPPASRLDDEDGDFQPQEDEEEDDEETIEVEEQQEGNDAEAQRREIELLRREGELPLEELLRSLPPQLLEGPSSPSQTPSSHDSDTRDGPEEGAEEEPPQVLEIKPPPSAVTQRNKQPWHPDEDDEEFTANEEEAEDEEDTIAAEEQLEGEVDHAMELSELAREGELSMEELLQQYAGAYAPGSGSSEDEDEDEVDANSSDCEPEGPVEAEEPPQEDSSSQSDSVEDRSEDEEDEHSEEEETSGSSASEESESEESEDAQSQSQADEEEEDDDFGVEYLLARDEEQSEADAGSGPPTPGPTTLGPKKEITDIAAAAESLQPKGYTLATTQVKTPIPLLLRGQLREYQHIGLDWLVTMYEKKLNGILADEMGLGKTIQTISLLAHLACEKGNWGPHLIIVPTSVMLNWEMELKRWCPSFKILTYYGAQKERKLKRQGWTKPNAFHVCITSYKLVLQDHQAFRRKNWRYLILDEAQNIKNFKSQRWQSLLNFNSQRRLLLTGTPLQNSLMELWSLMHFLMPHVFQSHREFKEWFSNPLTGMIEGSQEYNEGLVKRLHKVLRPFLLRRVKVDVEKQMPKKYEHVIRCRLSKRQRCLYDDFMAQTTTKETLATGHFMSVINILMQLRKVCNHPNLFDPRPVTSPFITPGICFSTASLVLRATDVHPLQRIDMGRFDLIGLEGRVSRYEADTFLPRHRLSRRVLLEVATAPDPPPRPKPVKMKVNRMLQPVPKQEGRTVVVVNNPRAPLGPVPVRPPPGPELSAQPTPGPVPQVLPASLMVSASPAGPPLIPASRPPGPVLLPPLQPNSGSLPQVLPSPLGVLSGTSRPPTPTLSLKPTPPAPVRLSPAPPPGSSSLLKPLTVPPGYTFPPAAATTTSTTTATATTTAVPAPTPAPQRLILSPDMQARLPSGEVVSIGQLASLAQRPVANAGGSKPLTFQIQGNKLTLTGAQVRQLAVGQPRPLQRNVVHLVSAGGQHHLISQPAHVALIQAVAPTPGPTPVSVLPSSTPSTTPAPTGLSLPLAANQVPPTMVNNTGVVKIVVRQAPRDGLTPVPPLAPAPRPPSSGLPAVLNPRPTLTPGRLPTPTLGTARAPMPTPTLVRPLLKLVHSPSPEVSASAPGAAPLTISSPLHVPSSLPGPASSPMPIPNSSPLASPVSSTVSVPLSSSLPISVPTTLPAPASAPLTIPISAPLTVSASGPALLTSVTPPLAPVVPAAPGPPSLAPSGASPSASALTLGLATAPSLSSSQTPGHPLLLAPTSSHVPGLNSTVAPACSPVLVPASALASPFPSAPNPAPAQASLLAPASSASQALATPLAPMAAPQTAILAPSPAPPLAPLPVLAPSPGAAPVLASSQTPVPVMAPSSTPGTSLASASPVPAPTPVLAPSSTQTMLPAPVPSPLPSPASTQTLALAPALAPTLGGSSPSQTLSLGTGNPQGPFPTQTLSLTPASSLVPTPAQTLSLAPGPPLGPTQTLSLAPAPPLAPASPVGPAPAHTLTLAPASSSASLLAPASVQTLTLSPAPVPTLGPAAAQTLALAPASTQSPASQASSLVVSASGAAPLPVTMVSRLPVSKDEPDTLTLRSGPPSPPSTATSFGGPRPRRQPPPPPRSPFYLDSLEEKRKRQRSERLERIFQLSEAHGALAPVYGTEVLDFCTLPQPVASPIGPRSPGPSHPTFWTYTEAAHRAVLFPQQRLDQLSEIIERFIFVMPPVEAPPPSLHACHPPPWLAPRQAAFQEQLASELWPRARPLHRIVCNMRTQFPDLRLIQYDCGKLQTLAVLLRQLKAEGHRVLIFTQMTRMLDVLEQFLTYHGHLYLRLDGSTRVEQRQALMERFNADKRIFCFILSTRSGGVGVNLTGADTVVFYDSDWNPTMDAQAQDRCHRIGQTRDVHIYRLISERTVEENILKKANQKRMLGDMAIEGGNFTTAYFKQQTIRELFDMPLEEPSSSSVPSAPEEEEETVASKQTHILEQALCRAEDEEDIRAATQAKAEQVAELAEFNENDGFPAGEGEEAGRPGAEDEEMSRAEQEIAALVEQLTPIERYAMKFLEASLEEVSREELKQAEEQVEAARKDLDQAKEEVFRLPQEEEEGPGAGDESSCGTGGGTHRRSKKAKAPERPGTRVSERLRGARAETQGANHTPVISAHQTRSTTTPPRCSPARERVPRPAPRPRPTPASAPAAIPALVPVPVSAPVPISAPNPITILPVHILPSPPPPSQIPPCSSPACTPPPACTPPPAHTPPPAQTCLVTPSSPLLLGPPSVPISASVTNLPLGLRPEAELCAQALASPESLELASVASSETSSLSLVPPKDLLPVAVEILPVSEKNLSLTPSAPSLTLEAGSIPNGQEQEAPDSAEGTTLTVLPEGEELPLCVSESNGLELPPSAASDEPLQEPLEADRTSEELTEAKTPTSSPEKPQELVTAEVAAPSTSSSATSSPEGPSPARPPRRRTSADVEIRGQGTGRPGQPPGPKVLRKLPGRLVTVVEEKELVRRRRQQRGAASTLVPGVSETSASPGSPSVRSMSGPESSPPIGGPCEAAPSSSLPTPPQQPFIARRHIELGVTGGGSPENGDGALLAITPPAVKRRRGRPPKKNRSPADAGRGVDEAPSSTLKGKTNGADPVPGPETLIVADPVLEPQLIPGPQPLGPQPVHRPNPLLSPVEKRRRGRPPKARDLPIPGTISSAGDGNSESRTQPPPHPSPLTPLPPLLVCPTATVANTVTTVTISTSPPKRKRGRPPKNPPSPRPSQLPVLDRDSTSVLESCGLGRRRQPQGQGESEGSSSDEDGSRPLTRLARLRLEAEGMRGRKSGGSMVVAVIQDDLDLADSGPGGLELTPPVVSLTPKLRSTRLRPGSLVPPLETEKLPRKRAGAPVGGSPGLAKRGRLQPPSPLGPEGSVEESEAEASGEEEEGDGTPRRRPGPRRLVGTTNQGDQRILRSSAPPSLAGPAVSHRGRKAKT
UniProt Q96GD4: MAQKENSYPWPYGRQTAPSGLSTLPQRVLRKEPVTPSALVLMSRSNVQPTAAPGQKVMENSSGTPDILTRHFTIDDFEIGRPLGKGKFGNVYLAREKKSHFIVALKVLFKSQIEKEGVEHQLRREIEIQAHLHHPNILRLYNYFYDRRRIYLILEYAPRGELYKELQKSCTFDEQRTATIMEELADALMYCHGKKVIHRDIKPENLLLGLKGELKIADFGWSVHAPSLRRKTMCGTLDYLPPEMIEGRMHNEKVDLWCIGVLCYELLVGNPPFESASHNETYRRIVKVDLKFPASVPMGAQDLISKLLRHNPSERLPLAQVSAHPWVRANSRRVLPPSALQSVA
UniProt O14578: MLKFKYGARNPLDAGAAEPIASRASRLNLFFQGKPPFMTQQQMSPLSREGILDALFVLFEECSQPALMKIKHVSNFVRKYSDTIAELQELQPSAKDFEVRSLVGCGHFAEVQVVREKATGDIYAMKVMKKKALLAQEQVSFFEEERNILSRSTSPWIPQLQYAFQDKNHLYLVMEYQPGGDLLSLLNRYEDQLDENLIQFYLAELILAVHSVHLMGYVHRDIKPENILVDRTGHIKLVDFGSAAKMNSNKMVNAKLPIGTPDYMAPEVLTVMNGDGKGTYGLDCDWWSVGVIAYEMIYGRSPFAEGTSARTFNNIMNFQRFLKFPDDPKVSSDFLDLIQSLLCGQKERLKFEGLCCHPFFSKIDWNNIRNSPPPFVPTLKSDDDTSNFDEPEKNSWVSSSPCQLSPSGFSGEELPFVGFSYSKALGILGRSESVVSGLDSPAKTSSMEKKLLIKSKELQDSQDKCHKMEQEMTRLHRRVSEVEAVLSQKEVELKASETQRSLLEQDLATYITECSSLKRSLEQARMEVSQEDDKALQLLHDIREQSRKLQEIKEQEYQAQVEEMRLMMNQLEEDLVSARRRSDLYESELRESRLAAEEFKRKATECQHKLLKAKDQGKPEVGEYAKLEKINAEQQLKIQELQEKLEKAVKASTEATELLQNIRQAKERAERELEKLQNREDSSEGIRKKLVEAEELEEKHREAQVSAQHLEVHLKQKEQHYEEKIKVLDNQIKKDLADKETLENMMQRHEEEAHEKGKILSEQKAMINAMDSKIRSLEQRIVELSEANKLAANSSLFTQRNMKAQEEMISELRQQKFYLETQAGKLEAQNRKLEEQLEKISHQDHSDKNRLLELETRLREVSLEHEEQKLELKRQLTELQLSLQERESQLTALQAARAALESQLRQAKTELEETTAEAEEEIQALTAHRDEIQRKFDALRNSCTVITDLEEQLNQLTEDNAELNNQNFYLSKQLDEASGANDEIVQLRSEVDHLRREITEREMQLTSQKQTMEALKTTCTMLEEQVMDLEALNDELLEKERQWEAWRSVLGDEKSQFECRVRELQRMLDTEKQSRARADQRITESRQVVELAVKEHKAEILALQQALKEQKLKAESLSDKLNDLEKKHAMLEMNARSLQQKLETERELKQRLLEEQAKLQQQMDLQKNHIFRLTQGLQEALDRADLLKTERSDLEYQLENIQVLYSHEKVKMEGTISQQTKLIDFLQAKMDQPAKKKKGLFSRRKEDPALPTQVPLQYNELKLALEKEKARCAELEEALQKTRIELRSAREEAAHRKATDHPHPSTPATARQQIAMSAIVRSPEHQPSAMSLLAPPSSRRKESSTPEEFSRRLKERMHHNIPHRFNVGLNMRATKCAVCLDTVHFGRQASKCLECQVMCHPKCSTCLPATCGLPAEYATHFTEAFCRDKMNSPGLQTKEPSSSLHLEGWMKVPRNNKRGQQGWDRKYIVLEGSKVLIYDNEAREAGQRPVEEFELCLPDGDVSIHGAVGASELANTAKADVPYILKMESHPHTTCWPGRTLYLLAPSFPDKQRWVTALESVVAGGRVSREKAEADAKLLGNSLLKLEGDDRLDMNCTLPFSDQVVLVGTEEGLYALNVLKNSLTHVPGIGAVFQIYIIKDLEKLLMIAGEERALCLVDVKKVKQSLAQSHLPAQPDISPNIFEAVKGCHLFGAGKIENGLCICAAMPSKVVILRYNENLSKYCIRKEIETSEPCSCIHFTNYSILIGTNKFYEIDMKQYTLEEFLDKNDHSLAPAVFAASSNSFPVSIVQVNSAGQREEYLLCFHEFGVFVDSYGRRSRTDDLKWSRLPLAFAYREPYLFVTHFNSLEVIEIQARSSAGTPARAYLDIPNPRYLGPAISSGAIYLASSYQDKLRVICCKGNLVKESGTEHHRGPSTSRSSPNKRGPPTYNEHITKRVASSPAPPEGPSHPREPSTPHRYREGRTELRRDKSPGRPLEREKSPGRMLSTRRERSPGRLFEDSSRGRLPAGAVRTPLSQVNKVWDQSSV
UniProt O95235: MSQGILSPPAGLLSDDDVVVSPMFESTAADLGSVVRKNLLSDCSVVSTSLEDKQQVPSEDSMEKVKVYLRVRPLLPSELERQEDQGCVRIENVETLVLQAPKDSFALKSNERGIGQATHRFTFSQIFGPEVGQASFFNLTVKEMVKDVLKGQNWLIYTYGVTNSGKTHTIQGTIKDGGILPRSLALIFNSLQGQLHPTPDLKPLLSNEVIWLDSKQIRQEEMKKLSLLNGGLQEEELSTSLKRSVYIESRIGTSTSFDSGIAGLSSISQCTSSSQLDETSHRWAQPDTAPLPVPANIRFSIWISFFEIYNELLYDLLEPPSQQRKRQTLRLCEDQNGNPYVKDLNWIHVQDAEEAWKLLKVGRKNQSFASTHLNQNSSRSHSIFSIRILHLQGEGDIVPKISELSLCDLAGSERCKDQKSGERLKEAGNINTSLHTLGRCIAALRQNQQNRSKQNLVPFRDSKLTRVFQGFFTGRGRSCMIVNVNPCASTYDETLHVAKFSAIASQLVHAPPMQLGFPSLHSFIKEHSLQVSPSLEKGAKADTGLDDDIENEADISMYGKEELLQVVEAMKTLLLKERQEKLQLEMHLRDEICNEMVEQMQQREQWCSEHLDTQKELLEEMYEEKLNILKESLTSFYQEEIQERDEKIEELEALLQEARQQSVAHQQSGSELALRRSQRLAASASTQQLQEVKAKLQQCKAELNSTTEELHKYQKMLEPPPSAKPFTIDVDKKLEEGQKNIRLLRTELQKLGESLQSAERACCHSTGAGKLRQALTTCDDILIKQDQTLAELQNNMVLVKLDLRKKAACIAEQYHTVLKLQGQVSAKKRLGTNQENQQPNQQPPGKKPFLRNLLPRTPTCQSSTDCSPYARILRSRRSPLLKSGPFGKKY

These are yes or no findings as the source states them, for the method shown. Binding seen in cells or lysates may run through a third protein. Some results given as binding are weak or reduced against the parent protein; the word gives no strength.

As to Aurora B (from UniProt Q96GD4 1-344), the binding entry is given as “binds”.
Take Cit-K (from UniProt O14578 1-2027): the binding result is given as “binds”.
To PLK1 (from UniProt P53350 1-603) belongs “binds”; to Alix (from UniProt Q8WUM4 1-868), “binds”; to MKLP2 (from UniProt O95235 1-890), “binds”.

B1: CEP55 (protein, UniProt Q53EZ4 1-464)
chain: MSSRSTKDLIKSKWGSKPSNSKSETTLEKLKGEIAHLKTSVDEITSGKGKLTDKERHRLLEKIRVLEAEKEKNAYQLTEKDKEIQRLRDQLKARYSTTTLLEQLEETTREGERREQVLKALSEEKDVLKQQLSAATSRIAELESKTNTLRLSQTVAPNCFNSSINNIHEMEIQLKDALEKNQQWLVYDQQREVYVKGLLAKIFELEKKTETAAHSLPQQTKKPESEGYLQEEKQKCYNDLLASAKKDLEVERQTITQLSFELSEFRRKYEETQKEVHNLNQLLYSQRRADVQHLEDDRHKTEKIQKLREENDIARGKLEEEKKRSEELLSQVQFLYTSLLKQQEEQTRVALLEQQMQACTLDFENEKLDRQHVQHQLHVILKELRKARNQITQLESLKQLHEFAITEPLVTFQGETENREKVAASPKSPTAALNESLVECPKCNIQYPATEHRDLLVHVEYCSK
In the case of B1, the binding result is on record as “binds”.

B2: Anillin (protein, UniProt Q9NQW6 1-1124)
chain: MDPFTEKLLERTRARRENLQRKMAERPTAAPRSMTHAKRARQPLSEASNQQPLSGGEEKSCTKPSPSKKRCSDNTEVEVSNLENKQPVESTSAKSCSPSPVSPQVQPQAADTISDSVAVPASLLGMRRGLNSRLEATAASSVKTRMQKLAEQRRRWDNDDMTDDIPESSLFSPMPSEEKAASPPRPLLSNASATPVGRRGRLANLAATICSWEDDVNHSFAKQNSVQEQPGTACLSKFSSASGASARINSSSVKQEATFCSQRDGDASLNKALSSSADDASLVNASISSSVKATSPVKSTTSITDAKSCEGQNPELLPKTPISPLKTGVSKPIVKSTLSQTVPSKGELSREICLQSQSKDKSTTPGGTGIKPFLERFGERCQEHSKESPARSTPHRTPIITPNTKAIQERLFKQDTSSSTTHLAQQLKQERQKELACLRGRFDKGNIWSAEKGGNSKSKQLETKQETHCQSTPLKKHQGVSKTQSLPVTEKVTENQIPAKNSSTEPKGFTECEMTKSSPLKITLFLEEDKSLKVTSDPKVEQKIEVIREIEMSVDDDDINSSKVINDLFSDVLEEGELDMEKSQEEMDQALAESSEEQEDALNISSMSLLAPLAQTVGVVSPESLVSTPRLELKDTSRSDESPKPGKFQRTRVPRAESGDSLGSEDRDLLYSIDAYRSQRFKETERPSIKQVIVRKEDVTSKLDEKNNAFPCQVNIKQKMQELNNEINMQQTVIYQASQALNCCVDEEHGKGSLEEAEAERLLLIATGKRTLLIDELNKLKNEGPQRKNKASPQSEFMPSKGSVTLSEIRLPLKADFVCSTVQKPDAANYYYLIILKAGAENMVATPLASTSNSLNGDALTFTTTFTLQDVSNDFEINIEVYSLVQKKDPSGLDKKKKTSKSKAITPKRLLTSITTKSNIHSSVMASPGGLSAVRTSNFALVGSYTLSLSSVGNTKFVLDKVPFLSSLEGHIYLKIKCQVNSSVEERGFLTIFEDVSGFGAWHRRWCVLSGNCISYWTYPDDEKRKNPIGRINLANCTSRQIEPANREFCARRNTFELITVRPQREDDRETLVSQCRDTLCVTKNWLSADTKEERDLWMQKLNQVLVDIRLWQPDACYKPIGKP
Take B2: the binding entry is “binds”.

B3: Spastin (protein, UniProt Q9UBP0 1-616)
chain: MNSPGGRGKKKGSGGASNPVPPRPPPPCLAPAPPAAGPAPPPESPHKRNLYYFSYPLFVGFALLRLVAFHLGLLFVWLCQRFSRALMAAKRSSGAAPAPASASAPAPVPGGEAERVRVFHKQAFEYISIALRIDEDEKAGQKEQAVEWYKKGIEELEKGIAVIVTGQGEQCERARRLQAKMMTNLVMAKDRLQLLEKMQPVLPFSKSQTDVYNDSTNLACRNGHLQSESGAVPKRKDPLTHTSNSLPRSKTVMKTGSAGLSGHHRAPSYSGLSMVSGVKQGSGPAPTTHKGTPKTNRTNKPSTPTTATRKKKDLKNFRNVDSNLANLIMNEIVDNGTAVKFDDIAGQDLAKQALQEIVILPSLRPELFTGLRAPARGLLLFGPPGNGKTMLAKAVAAESNATFFNISAASLTSKYVGEGEKLVRALFAVARELQPSIIFIDEVDSLLCERREGEHDASRRLKTEFLIEFDGVQSAGDDRVLVMGATNRPQELDEAVLRRFIKRVYVSLPNEETRLLLLKNLLCKQGSPLTQKELAQLARMTDGYSGSDLTALAKDAALGPIRELKPEQVKNMSASEMRNIRLSDFTESLKKIKRSVSPQTLEAYIRWNKDFGDTTV
On to B3, for which the binding result is given as “binds”.

These data come from article PMC8414691.
